# Source: PubChem BioAssay AID504791 (Drosophila RNAi Screening Center, 2011)
# Assay: 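Genes of the fly required for silencing by miRNA, siRNA or endo-siRNA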 (primary screen)
# Cells: Drosophila S2-derived reporter cells
# Reagent: long dsRNA against Drosophila genes, about 150-250 ng dsRNA per well (siRNA assay); about 80-120 ng (miRNA assay)
# Time to read-out: about 5 days (siRNA assay); about 4 days (miRNA assay)
# Conditions: copper sulfate induction of reporters: 25 µM (siRNA assay); 200 mM stated (miRNA assay), 1-2 days before reading
# Measurement: 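Dual luciferase assay: Renilla to firefly signal ratio in each well, scaled to the mean ratio of its plate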
# Active means: 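First-pass picks had plate-scaled ratios over 1.5 for the siRNA assay, over 1.6 for the miRNA assay, or under 0.6; two distinct dsRNAs had to score alike on retest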
# The deposit covers about 23,000 reagents; this is an unselected part of those that have a named target and a result. In the full data, 199 (0.86%) got an active call. 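Plate-scaled ratios behind the calls are not deposited; printed light signals are raw; many rows marked increased or decreased are still called inactive.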 Reagents against one gene are numbered here. Not stated in the record: the direction of the score.
The opening 4 entries, to show the layout:
Gene,reagent,stable siRNA reporter change,miRNA reporter change,"stable assay Renilla, run 1 (luminescence)","stable assay firefly, run 1 (luminescence)",call
Osi5 (Osiris 5),1,,,7114,4.54e5,inactive
spz (spatzle),1,,,9844,6.44e5,inactive
CG11570,1,,,5935,3.73e5,inactive
CG2972,1,,,8638,5.56e5,inactive

Results, repeating the preview:
Gene,reagent,stable siRNA reporter change,miRNA reporter change,"stable assay Renilla, run 1 (luminescence)","stable assay firefly, run 1 (luminescence)",call
Osi5 (Osiris 5),1,,,7114,4.54e5,inactive
spz (spatzle),1,,,9844,6.44e5,inactive
CG11570,1,,,5935,3.73e5,inactive
CG2972,1,,,8638,5.56e5,inactive
Spn100A (Serpin 100A),1,,,8186,3.78e5,inactive
CG5334,1,,,5611,4.00e5,inactive
CG5909,1,,,6671,3.39e5,inactive
L (retired record),1,,,5803,3.44e5,inactive
L (retired record),2,,,4423,1.76e5,inactive
CG6398,1,,,8160,3.57e5,inactive
CG13794,1,,,7592,4.13e5,inactive
Usp2 (Ubiquitin specific protease 2),1,,,5151,3.69e5,inactive
Usp2 (Ubiquitin specific protease 2),2,,,7059,4.89e5,inactive
Usp2 (Ubiquitin specific protease 2),3,,,5172,3.42e5,inactive
Cyp18a1 (Cytochrome P450 18a1),1,,,6507,5.01e5,inactive
Unc-76 (Uncoordinated 76),1,,,6686,3.64e5,inactive
Unc-76 (Uncoordinated 76),2,,,6448,3.35e5,inactive
Setx (Senataxin),1,,,4924,3.69e5,inactive
CG17598,1,,,7003,4.23e5,inactive
CG15208,1,,,6899,4.39e5,inactive
GstE9 (Glutathione S transferase E9),1,,,4587,2.47e5,inactive
Capa (Capability),1,,,7078,3.85e5,inactive
wrd (well-rounded),1,,,5720,2.27e5,inactive
wrd (well-rounded),2,,,7504,4.25e5,inactive
wrd (well-rounded),3,,,2511,2.09e5,inactive
tll (tailless),1,,,6251,3.11e5,inactive
Or82a (Odorant receptor 82a),1,,,7186,7.09e5,inactive
CG5850,1,,,9223,5.26e5,inactive
Obp19d (Odorant-binding protein 19d),1,,,6852,4.74e5,inactive
ND-13A (NADH dehydrogenase (ubiquinone) 13 kDa A subunit),1,,,7656,4.31e5,inactive
CG11899,1,,,6602,5.11e5,inactive
Snrk (SNF related kinase),1,,,7663,4.28e5,inactive
Snrk (SNF related kinase),2,,,4667,2.87e5,inactive
CG15073,1,,,5254,2.65e5,inactive
"Nsun2 (NOP2-Sun domain family, member 2)",1,,,3615,3.56e5,inactive
CG15544,1,,,6151,3.10e5,inactive
CG1552,1,,,5695,3.07e5,inactive
Bub3,1,,,8508,4.71e5,inactive
mael (maelstrom),1,,,9279,3.31e5,inactive
CG30398,1,,,5371,4.49e5,inactive
CG11269,1,,,6427,3.89e5,inactive
mbt (mushroom bodies tiny),1,,,4763,3.34e5,inactive
mbt (mushroom bodies tiny),2,,,4527,3.47e5,inactive
CG15649,1,,,6315,4.22e5,inactive
sage (salivary gland-expressed bHLH),1,,,5108,4.73e5,inactive
Prp4k (Pre-mRNA processing factor 4 kinase),1,,,8064,2.85e5,inactive
bug (bunker gear),1,,,7794,2.90e5,inactive
B-H1 (BarH1),1,,,3952,3.04e5,inactive
B-H1 (BarH1),2,,,9526,6.20e5,inactive
sNPF (short neuropeptide F precursor),1,,,7935,3.48e5,inactive
Muc68Ca (Mucin 68Ca),1,,,4079,3.50e5,inactive
Muc68Ca (Mucin 68Ca),2,,,7474,6.15e5,inactive
fuss (fussel),1,,,6818,4.14e5,inactive
fuss (fussel),2,,,10376,6.05e5,inactive
eIF2A (eukaryotic translation initiation factor 2A),1,,,9093,2.91e5,inactive
CG7384,1,,,7835,6.81e5,inactive
Cpsf5 (Cleavage and polyadenylation specific factor 5),1,reporter ratio raised past the hit cutoff,reporter ratio raised past the hit cutoff,21206,4.59e5,inactive
